Test results taken from the supplement of paper PMC8166895.
Counter-ions that a name gives are not always drawn. This is one part of the list. Most values lie at the level of the controls, where differences are scatter.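 Differential scanning fluorimetry gave melting temperatures in a one-replicate pilot screen of a library of approved drugs plus clinical or known-target compounds. Hits increasing melting point at least 2 °C were the strongest stabilizers, while negative shifts signify destabilization.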 Where a SMILES comes first, the peptide text is derived from it. [ ]: non-standard residue; d: D form. The star is where a group is joined. Dolaproine = CO[C@@H]([C@@H]1CCCN1)[C@@H](C)C(=O)O; Dil = CC[C@H](C)[C@H](NC)[C@@H](CC(=O)O)OC; X1 = C[C@@H](N*)[C@@H](O)c1ccccc1; NMeV = CN[C@H](C(=O)O)C(C)C

What follows are molecules tested on SARS-CoV-2 main protease (Mpro, nsp5) (assay: thermal shift ΔTm of Mpro relative to plate average Tm; higher = stronger thermal stabilization of Mpro (binding)). Details: 10 µM; protein concentration 1 µM.

| Structure (SMILES) | thermal shift ΔTm of Mpro |
| --- | --- |
| CC(C)N(CCC(=O)c1ccc2ccccc2c1)Cc1ccccc1 | 0.229 °C |
| CC(C)(C)C#Cc1cc(N(C(=O)[C@H]2CC[C@H](C)CC2)[C@H]2CC[C@H](O)CC2)c(C(=O)O)s1 [VX-222 (VCH-222, Lomibuvir)] | 0.206 °C |
| CCC(C)(C)c1ccc(CC(C)CN2C[C@@H](C)O[C@@H](C)C2)cc1 (stereo not given in full) [Amorolfine HCl] | 0.00535 °C |
| O=C(O)c1cc(=O)c2c(OCC(O)COc3cccc4oc(C(=O)O)cc(=O)c34)cccc2o1 [Sodium cromoglycate] | 0.0904 °C |
| Oc1c(Cl)cc(Cl)cc1Sc1cc(Cl)cc(Cl)c1O [Bithionol] | 0.205 °C |
| C=CCc1ccccc1OCC(O)CNC(C)C (stereo not given) [Alprenolol] | 0.0956 °C |
| CCCCOc1ccc(CC(=O)NO)cc1 [Bufexamac] | -0.0643 °C |
| Cc1cc(C)cc(NC(=O)Cc2ccc(OC(C)(C)C(=O)O)cc2)c1 [Efaproxiral Sodium] | -0.0896 °C |
| Cc1ccc(O)c([C@H](CCN(C(C)C)C(C)C)c2ccccc2)c1 [Tolterodine tartrate] | -0.0723 °C |
| CCCCCCCCCCCCCCCCO [1-Hexadecanol] | -0.207 °C |
| C[C@H]1c2cccc(O)c2C(O)=C2C(=O)[C@]3(O)C(O)=C(C(N)=O)C(=O)[C@@H](N(C)C)[C@@H]3[C@@H](O)[C@@H]21 [Doxycycline HCl] | -0.137 °C |
| C[C@H]1c2cccc(O)c2C(O)=C2C(=O)[C@]3(O)C(O)=C(C(N)=O)C(=O)[C@@H](N(C)C)[C@@H]3[C@@H](O)[C@@H]21 [Doxycycline Hyclate] | 0.0283 °C |
| Cc1c(O)cccc1C(=O)N[C@@H](CSc1ccccc1)[C@H](O)CN1C[C@H]2CCCC[C@H]2C[C@H]1C(=O)NC(C)(C)C [Nelfinavir Mesylate] | -0.109 °C |
| CC(C)NCCCn1c(Sc2cc3c(cc2I)OCO3)nc2c(N)ncnc21 | -0.143 °C |
| Nc1ccn([C@@H]2O[C@H](CO)[C@@H](O)[C@H]2O)c(=O)n1 [Cytidine] | 0.0474 °C |
| CN(C)CCC(c1ccccc1)c1ccccn1 (stereo not given) [Pheniramine Maleate] | 0.0584 °C |
| Cc1cccc(Nc2nc(-c3ccncc3)cs2)c1 | -0.143 °C |
| CCOc1ccc(Cc2cc([C@@H]3O[C@H](CO)[C@@H](O)[C@H](O)[C@H]3O)ccc2Cl)cc1 [Dapagliflozin ((2S)-1,2-propanediol, hydrate)] | 0.0114 °C |
| CCOc1ccc(Cc2cc([C@@H]3O[C@H](CO)[C@@H](O)[C@H](O)[C@H]3O)ccc2Cl)cc1 [Dapagliflozin] | -0.0272 °C |
| CC(C)(C)NC(=O)c1cncn1C1CCN(c2ccc(-c3nnc(C(F)(F)F)o3)cn2)CC1 | -0.00432 °C |
| CN(C)CCN1C(=O)c2cccc3cc(N)cc(c23)C1=O [Amonafide] | 0.655 °C |
| O=c1cc(CN2CCOCC2)occ1OCCCCCSc1ccnc2cc(C(F)(F)F)ccc12 | -0.378 °C |
| NCCCC[C@H](NC(=O)[C@H](Cc1cnc[nH]1)NC(=O)CN)C(=O)O [Glycyl-L-Histidyl-L-Lysine] (H-Gly-His-Lys-OH) | 0.177 °C |
| O[C@@H]1CO[C@H]2[C@@H]1OC[C@@H]2O [Isosorbide] | -0.107 °C |
| NC1(C(=O)O)CCC(C(=O)O)C1 (mixture of isomers) [(±)-trans-ACPD] | -0.0839 °C |

| Structure (SMILES) | thermal shift ΔTm of Mpro |
| --- | --- |
| CCn1c(-c2nonc2N)nc2cnc(Oc3cccc(NC(=O)c4ccc(OCCN5CCOCC5)cc4)c3)cc21 | -0.215 °C |
| O=C(O)c1ccc(N2C(=O)C(=Cc3ccc(-c4ccc([N+](=O)[O-])cc4)o3)C=C2c2ccccc2)cc1 | 0.426 °C |
| CC(C)(C)C(O)/C=C/c1ccc2c(c1)OCO2 (stereo not given) [Stiripentol] | 0.282 °C |
| Cc1cc(CS(=O)(=O)c2ccccc2)cc(OCc2ccc(CN3CCC[C@@H]3CO)cc2)c1 | -0.124 °C |
| CCc1cc(/C(C)=N/OCc2ccc(C3CCCCC3)c(C(F)(F)F)c2)ccc1CN1CC(C(=O)O)C1 [BAF312 (Siponimod)] | -1.11 °C |
| CCN(CCCc1ccccc1)CCCc1ccccc1 [Alverine Citrate] | -0.00601 °C |
| COc1ccccc1/C=C1\C(=O)Nc2ccccc21 | -0.0187 °C |
| COc1cc2c(cc1OC)CN(CCc1ccc(NC(=O)c3cccc4c(=O)c5cccc(OC)c5[nH]c34)cc1)CC2 | -0.125 °C |
| O=P(O)(O)C(O)(Cc1cccnc1)P(=O)(O)O [Risedronic Acid] | -0.0183 °C |
| O=P(O)(O)C(O)(Cc1cccnc1)P(=O)(O)O [Risedronate Sodium] | 0.183 °C |
| CC[C@H](C)[C@@H]([C@@H](CC(=O)N1CCC[C@H]1[C@H](OC)[C@@H](C)C(=O)N[C@H](C)[C@@H](O)c1ccccc1)OC)N(C)C(=O)[C@@H](NC(=O)[C@@H](NC)C(C)C)C(C)C [Monomethyl auristatin E (MMAE)] (H-[NMeV]V[Dil][Dolaproine]-X1) | -0.31 °C |
| O=C(Nc1ccc2c(O)cc(S(=O)(=O)O)cc2c1)Nc1ccc2c(O)cc(S(=O)(=O)O)cc2c1 | 0.49 °C |
| CCN(CC)C(=O)N1CCN(C)CC1 [Diethylcarbamazine citrate] | -0.194 °C |
| CC(C)(C)c1ccc(S(=O)(=O)NCc2ccc(C(=O)Nc3cccnc3)cc2)cc1 | 0.18 °C |
| Cc1ccccc1C(=O)N1CCc2cc(-c3nc(NC(=O)Cc4ccc5c(c4)OCO5)sc3C)ccc21 | -0.219 °C |
| Cc1c(Br)cc(NCC(=O)N/N=C/c2cc([N+](=O)[O-])ccc2O)cc1Br | 0.249 °C |
| Cc1cc(CC(C)CC(C)(C)C)n(O)c(=O)c1 (stereo not given) [Piroctone olamine] | -0.225 °C |
| O=S(=O)(O)CCSSCCS(=O)(=O)O [Dimesna] | 0.24 °C |
| CO[C@H]1C(=O)[C@]2(C)[C@@H](OC)C[C@H]3OC[C@@]3(OC(C)=O)[C@H]2[C@H](OC(=O)c2ccccc2)[C@]2(O)C[C@H](OC(=O)[C@H](O)[C@@H](NC(=O)OC(C)(C)C)c3ccccc3)C(C)=C1C2(C)C [Cabazitaxel] | -0.135 °C |
| Clc1ccc(COC(Cn2ccnc2)c2ccc(Cl)cc2Cl)cc1 (stereo not given) [Econazole] | -0.245 °C |
| Clc1ccc(COC(Cn2ccnc2)c2ccc(Cl)cc2Cl)cc1 (stereo not given) [Econazole nitrate] | -0.08 °C |
| C[C@H](CCC(=O)NCC(=O)O)[C@H]1CC[C@H]2[C@@H]3[C@H](O)C[C@@H]4C[C@H](O)CC[C@]4(C)[C@H]3C[C@H](O)[C@]12C [Glycocholic Acid Sodium Salt] | 0.00666 °C |
| CO/N=C1\CN(c2nc3c(cc2F)c(=O)c(C(=O)O)cn3C2CC2)CC1CN (stereo not given) [Gemifloxacin mesylate] | 0.044 °C |
| Clc1ccccc1C(c1ccccc1)(c1ccccc1)n1ccnc1 [Clotrimazole] | -0.265 °C |
| NC(=O)NO [Hydroxyurea] | 0.0535 °C |

| Structure (SMILES) | thermal shift ΔTm of Mpro |
| --- | --- |
| COc1cc2ncnc(Nc3ccc(F)c(Cl)c3)c2cc1NC(=O)/C=C/CN1CCCCC1 | 0.434 °C |
| O=c1c(O[C@@H]2O[C@@H](CO)[C@H](O)[C@H]2O)c(-c2ccc(O)c(O)c2)oc2cc(O)cc(O)c12 [Avicularin] | 0.0509 °C |
| Nc1ncnc2c1nc(Br)n2[C@@H]1O[C@@H]2COP(=O)(O)O[C@H]2[C@H]1O [8-Bromo-cAMP] | 0.176 °C |
| CCCCC1C(=O)N(c2ccccc2)N(c2ccccc2)C1=O [Phenylbutazone] | 1.18 °C |
| O=C(Nc1ccc2[nH]nc(-c3ccncc3)c2c1)[C@@H]1CCN(CC(=O)N2CCN(c3ccc(-c4ncccn4)cc3)CC2)C1 | 0.0283 °C |
| CCCCOC(=O)c1ccc(O)cc1 [Butylparaben] | -0.0509 °C |
| COCCCOc1cc(C[C@@H](C[C@H](N)[C@@H](O)C[C@H](C(=O)NCC(C)(C)C(N)=O)C(C)C)C(C)C)ccc1OC [Aliskiren Hemifumarate] | -0.146 °C |
| CCCc1nc2c(C)cc(-c3nc4ccccc4n3C)cc2n1Cc1ccc(-c2ccccc2C(=O)O)cc1 [Telmisartan] | -0.18 °C |
| CC(C)(C)C1CCc2c(sc(NC(=O)c3ccco3)c2C(=O)O)C1 (stereo not given) | -0.0432 °C |
| CC(=O)/N=c1/sc(S(N)(=O)=O)nn1C [Methazolamide] | 0.0848 °C |
| CC1=CC(=O)c2ccccc2C1=O [Menadione] | 0.169 °C |
| Cc1ccc(C(=O)N(CCCN)[C@@H](c2nc3cc(Cl)ccc3c(=O)n2Cc2ccccc2)C(C)C)cc1 | -0.174 °C |
| COC(=O)CN(c1ccc(CN(c2ccc(OCc3ccc(C)cc3)c(C(=O)OC)c2)S(=O)(=O)Cc2ccccc2)cc1)S(C)(=O)=O | -0.0033 °C |
| N[C@@H](CCNCc1ccc(Cl)cc1)C(=O)N1CCCCC1 | -0.0599 °C |
| C[C@@H](Oc1cc(-c2cnn(C3CCNCC3)c2)cnc1N)c1c(Cl)ccc(F)c1Cl | -0.189 °C |
| C[C@@H](Oc1cc(-c2cnn(C3CCNCC3)c2)cnc1N)c1c(Cl)ccc(F)c1Cl [Crizotinib] | 0.379 °C |
| CCC(CC)(NC(=O)C(C)C)C(=O)N[C@@H](CCCN=C(N)N)C(=O)NC1(C(=O)NC(c2ccc(F)cc2)c2ccc(F)cc2)CCCC1 | -0.0596 °C |
| COCCCOc1ccnc(C[S+]([O-])c2nc3ccccc3[nH]2)c1C (stereo not given) [Rebeprazole sodium] | -1.04 °C |
| O=C(O)Cc1cc(I)c(Oc2ccc(O)c(I)c2)c(I)c1 [Tiratricol] | -0.0767 °C |
| Cc1cc(Nc2ncc(Cl)c(Nc3ccccc3S(=O)(=O)C(C)C)n2)c(OC(C)C)cc1C1CCNCC1 | 0.0451 °C |
| NS(=O)(=O)C#Cc1ccccc1 [Pifithrin-μ] | -0.0332 °C |
| Cc1ccc(C(=O)C(C)CN2CCCCC2)cc1 (stereo not given) [Tolperisone HCl] | 0.0309 °C |
| CC(C)(O)CNc1nc(Nc2ccnc(C(F)(F)F)c2)nc(-c2cccc(C(F)(F)F)n2)n1 [Enasidenib] | 0.17 °C |
| CNCC[C@@H](Oc1ccccc1C)c1ccccc1 [Atomoxetine HCl] | 0.199 °C |
| CC(C)(C)c1cc(NC(=O)Nc2ccc(Oc3ccnc4[nH]c(=O)cnc34)cc2F)n(-c2ccccc2)n1 | -0.00572 °C |

Five neighbouring entries out of the list so far, quoted:

| Structure (SMILES) | thermal shift ΔTm of Mpro |
| --- | --- |
| C[C@@H](Oc1cc(-c2cnn(C3CCNCC3)c2)cnc1N)c1c(Cl)ccc(F)c1Cl | -0.189 °C |
| C[C@@H](Oc1cc(-c2cnn(C3CCNCC3)c2)cnc1N)c1c(Cl)ccc(F)c1Cl [Crizotinib] | 0.379 °C |
| CCC(CC)(NC(=O)C(C)C)C(=O)N[C@@H](CCCN=C(N)N)C(=O)NC1(C(=O)NC(c2ccc(F)cc2)c2ccc(F)cc2)CCCC1 | -0.0596 °C |
| COCCCOc1ccnc(C[S+]([O-])c2nc3ccccc3[nH]2)c1C (stereo not given) [Rebeprazole sodium] | -1.04 °C |
| O=C(O)Cc1cc(I)c(Oc2ccc(O)c(I)c2)c(I)c1 [Tiratricol] | -0.0767 °C |
